The series is described as follows: peptide synthesis. The following applies: conjugation step.

Strings that start with PEPTIDE1 are HELM notation: dots part the residues, brackets hold end groups and non-standard residues.

“PEPTIDE1{[DOX14OGlt].G.P.L.G.L.A.G.D.D.Y.C.D.G.F.Y.A.C.Y.M.D.V.[am]}$PEPTIDE1,PEPTIDE1,12:R3-18:R3$$$V2.0” showed a conjugation yield of 43.5%. For the same substance, the “purity (crude or final not stated)” value (HPLC (XBridge Prep OBD C18, water with 0.1% FA / ACN gradient)) is listed as 95.1%.

These data come from publication PMC6058718 (Drug Delivery, 2018).
